# Data published in PubChem BioAssay AID602313 (National Center for Advancing Translational Sciences (NCATS), 2012).
# Among all 390,000 compounds or so, about 760 (0.19%) were called active. Inconclusive means that the source gave no clear call. Such entries were picked first, then a sample of the others. Calls come from the whole dose curve; as a rule, active = well fitted inhibition curve with a large enough effect; inconclusive = small, poorly fitted or top-dose-only effect; inactive = flat fitted curve, though single readings scatter. Potencies of inconclusive entries are doubtful fits and often do not repeat.
# Assay: qHTS for Inhibitors of Vif-A3F Interactions: qHTS; note: nearly all actives have a fitted effect of over 65% in size; for activity, negative = active: % of control where 0% means no effect
# Settings: HeLa A3F-eYFP + Vif (tagged APOBEC3F with the HIV-1 protein that degrades it), YFP fluorescence increase; series mostly up to 46.1 µM; activity, negative = active: at the top concentration
# Outline: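 HeLa cells stably expressing A3F-eYFP plus Vif, plated and incubated overnight at 37 deg C, then exposed to compounds overnight at 37 deg C. Blocked degradation read as raised yellow fluorescence (Ex 488/Em 500-530).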
# Potency is the fitted concentration of half-maximal effect.
SMILES,Potency,"activity, negative = active"
COc1ccc(CCn2c(N)c(C(=O)NCc3ccco3)c3nc4ccccc4nc32)cc1OC,"inconclusive: 35.5 µM [inhibitor, single point]",
Cc1nc2[nH]c(=S)[nH]c(=O)c2nc1C,,inactive: 1.11%
Cc1ccc(O)c(NC(=S)NC(=O)c2ccccc2Cl)c1,"inconclusive: 15.8 µM [inhibitor, partial curve, poor fit]",
Cc1nn(C)c2c1c(-c1ccccc1)cc(=O)n2CC(=O)NC(C)C,,inactive: -1.3%
CCC(C)NC(=O)c1cc(-c2ccc3c(c2)OCO3)on1 (stereo unspecified),"inconclusive: 35.5 µM [inhibitor, single point]",
COC(=O)c1c(N)sc(C(=O)N2CCOCC2)c1C,,inactive: 2.22%
COc1cc2c(cc1OC)C(c1cc([N+](=O)[O-])ccc1O)NCC2 (stereo unspecified),,inactive: -8.41%
COc1ccc2sc(-c3ccc(N(C)C)cc3)c(C#CC(C)(C)O)c2c1,,inactive: -5.19%
CN1CCC(N(C)C(=O)c2cccc(S(=O)(=O)N3CCc4ccccc43)c2)CC1,,inactive: -10.1%
CCSc1nc2cc(S(=O)(=O)N3CCOCC3)ccc2o1,,inactive: 6.92%
COc1ccccc1-c1nnc(NC(=O)c2ccc(S(=O)(=O)N3CCOCC3)cc2)o1,"inconclusive: 35.5 µM [inhibitor, single point]",
N=C1/C(=C/c2cccs2)C(=O)N=C2SN=C(SCc3ccccc3)N12,,inactive: 12.5%
Cc1ccnc(NC(=O)CSc2cc(=O)n(C)c3ccccc23)c1,"inconclusive: 22.4 µM [inhibitor, partial curve, poor fit]",
CCN(CC)C(=O)Cn1cc(C(=O)C(=O)N2CC=C(c3ccccc3)CC2)c2ccccc21,"inconclusive: 35.5 µM [inhibitor, single point]",
O=C(NC1CCCCC1)C(c1ccc(F)cc1)N(Cc1ccco1)C(=O)c1ccccn1 (stereo unspecified),"inconclusive: 6.31 µM [inhibitor, single point]",
COc1ccc(-n2c(=S)[nH]c3sc(-c4ccccc4)cc3c2=O)c(OC)c1,"inconclusive: 5.62 µM [inhibitor, single point]",
Cc1ccc(C)c(C2=NNC(=NCc3ccccc3)SC2)c1,"inconclusive: 2.51 µM [inhibitor, partial curve, poor fit]",
Cc1c(Cl)cccc1N/C(SCC(=O)N1CCCCCC1)=C(/C#N)c1nc2ccccc2s1,"inconclusive: 35.5 µM [inhibitor, single point]",
COc1cc(OC)c(NC(=O)CCNC(=O)Cn2cnc3ccccc3c2=O)cc1Cl,,inactive: 4.67%
CCCCOc1ccc(-c2cc(C(F)(F)F)c(C#N)c(SCC(=O)O)n2)cc1,active: 11.2 µM,
Cc1cc(C)n2cc(CSc3ncccc3C(=O)O)nc2n1,,inactive: -6.8%
COc1ccc(OC)c(S(=O)(=O)NCC(c2cccs2)S(=O)(=O)c2ccc(F)cc2)c1 (stereo unspecified),,inactive: 4.52%
CC(C)c1ccc(OCCCCCN2CCOCC2)cc1,,inactive: 8.61%

# One compound at a time, from the list above:
# Cc1nc2[nH]c(=S)[nH]c(=O)c2nc1C as listed: activity, negative = active: inactive: 1.11%
# COc1cc(OC)c(NC(=O)CCNC(=O)Cn2cnc3ccccc3c2=O)cc1Cl as listed: activity, negative = active: inactive: 4.67%
# N=C1/C(=C/c2cccs2)C(=O)N=C2SN=C(SCc3ccccc3)N12 as listed: activity, negative = active: inactive: 12.5%
# Cc1nn(C)c2c1c(-c1ccccc1)cc(=O)n2CC(=O)NC(C)C as listed: activity, negative = active: inactive: -1.3%

# More structures follow.

SMILES,Potency,"activity, negative = active"
O=C(/C=C/c1ccco1)c1ccccc1O,"inconclusive: 25.1 µM [inhibitor, single point]",
CCn1c(=N)n(CC(=O)c2ccc(Cl)c(Cl)c2)c2ccccc21,"inconclusive: 35.5 µM [inhibitor, single point]",
O=C(C[n+]1cc(Br)cc2ccccc21)c1ccc(Cl)cc1,"inconclusive: 31.6 µM [inhibitor, single point]",
CC(=O)N(C1=C(Cl)C(=O)c2ccccc2C1=O)c1ccc(C(=O)O)cc1,"inconclusive: 5.62 µM [inhibitor, single point]",
CCN(CC)S(=O)(=O)c1cccc(C(=O)N/N=C/c2ccc([N+](=O)[O-])o2)c1,"inconclusive: 2.82 µM [inhibitor, single point]",
O=C(NC(=S)N1CCCC1)c1ccc(Cl)cc1Cl,"inconclusive: 7.94 µM [inhibitor, partial curve, poor fit]",
O=C(CCC1N=C2c3ccccc3N=C(SCC(=O)Nc3ccc(F)cc3)N2C1=O)NCc1cccs1 (stereo unspecified),"inconclusive: 2.51 µM [inhibitor, full curve, poor fit]",
NNc1nc2c(-c3cccc(C(F)(F)F)c3)nnn2c2ccccc12,"inconclusive: 35.5 µM [inhibitor, single point]",
Cn1c2ccccc2c2ccc3c(c21)C(=O)C=CC3=O,active: 11.2 µM,
CCCCCC(=O)N1C[C@H](n2cc(COC(=O)c3ccccc3)nn2)[C@@H](O)C[C@@H]1c1ccc(Cl)cc1,"inconclusive: 22.4 µM [inhibitor, single point]",
Cn1cnnc1SCC(=O)Nc1cc(C(F)(F)F)ccc1N1CCOCC1,"inconclusive: 25.1 µM [inhibitor, single point]",
N#CCSc1ccccc1NC(=O)CN1C(=O)C2CC=CCC2C1=O (stereo unspecified),"inconclusive: 17.8 µM [inhibitor, partial curve, poor fit]",
CCOC(=O)c1[nH]c(C)c(C(=O)c2cc(F)ccc2F)c1C,,inactive: -3.67%
COc1ccc(OC(C)C(=O)NCc2nc(-c3cccc(C)c3)no2)cc1 (stereo unspecified),,inactive: 1.28%
CN1CCN(Cc2cccc(Oc3ccc(Cl)cc3)c2)CC1,,inactive: -13.5%
Cc1cc(-c2cc(C)c(N)cc2C)c(C)cc1N,"inconclusive: 17.8 µM [inhibitor, single point]",
Cc1ccc(NC(=O)Cn2c(=O)c3cccn3c3ccccc32)c(Cl)c1,"inconclusive: 31.6 µM [inhibitor, single point]",
Cc1nn(-c2ccccc2)c(Cl)c1/C=N/Nc1nc2ccccc2n1C,"inconclusive: 20 µM [inhibitor, single point]",
Cc1ccccc1-c1cc(C(=O)NCc2cccc(Br)c2)n(CC2CC(c3cccnc3)=NO2)n1 (stereo unspecified),,inactive: -0.863%
COc1cc(CCc2ccccc2)c(C(=O)O)c(O)c1CC=C(C)C,,inactive: -22.8%
Oc1cc(-c2cccnc2)cc2cccnc12,"inconclusive: 25.1 µM [inhibitor, single point]",
COCCOC(=O)/C(=C\c1cc(C(C)(C)C)c(O)c(C(C)(C)C)c1)C(C)=O,"inconclusive: 3.16 µM [inhibitor, single point]",
COc1cc(/C=C2\C(=N)N3N=C(S(C)(=O)=O)SC3=NC2=O)ccc1OC(=O)c1ccco1,active: 7.08 µM,
